In the supplement of paper PMC12462457 one finds cell count data, which are given here for 35 molecules.

The test system of this assay is OVCAR8. The assay is described as follows: cell count relative to DMSO vehicle (fold change); higher = more surviving senescent cells (less killing). Conditions: senescence inducer: cisplatin 10 µM 48 h, then 6 d recovery (CP senescent), exposure time 24 h.

Each structure is given as a SMILES string. Structures can show the parent of a compound that is named as a salt. ± gives the standard deviation of the averaged measurements. The list shows a part of the results. This data set is noisy: repeats of one test often differ as much as different tests do.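 Cell counts came from imaging DAPI-stained nuclei, excluding as dead any cells lacking phalloidin-stained cytoplasm. Counts per well were normalized to the median vehicle-well count on that plate, and the values were averaged over two replicate plates.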

For `CCCCCCCCCCCC1=C(O)C(=O)C=C(O)C1=O` [Embelin], the cell count runs as follows: (compound dose 1 µM) 1.36 ± 0.37; (compound dose 5 µM) 1.07 ± 0.021.
For `CCC(Sc1nnc2c(n1)[nH]c1ccccc12)C(=O)N1c2ccccc2Sc2ccccc21` (stereo not given) [Inauhzin], in that order: 0.9425 ± 0.005 and 0.758 ± 0.39.
`CC(=O)N[C@H](Cc1ccc(O)cc1)C(=O)N[C@H](CCCN=C(N)N)C(=O)N[C@H](Cc1ccccc1)C(N)=O`: the cell count reads like this: (compound dose 1 µM) 0.813 ± 0.17; (compound dose 5 µM) 0.86 ± 0.028.
Taken in the same sequence, the figures for `O=C(NS(=O)(=O)c1ccc(Br)s1)c1ccc(Cl)cc1Cl` [Tasisulam] were 0.966 ± 0.16 and 0.92 ± 0.12.
Taken in the same sequence, the figures for `C/C(=N\NC(=O)c1cccc(S(=O)(=O)N2CCOCC2)c1)c1cc(Cl)ccc1O` were 0.867 ± 0.04 and 0.782 ± 0.085.
Regarding `CC(Nc1nc(N2CCCC2)nc2ccccc12)c1ccccc1` (stereo not given) [Importazole], the cell count by setting is: (compound dose 1 µM) 0.996 ± 0.11; (compound dose 5 µM) 0.85 ± 0.16.
`C=CCSCC(N)C(=O)O` (stereo not given): the cell count runs as follows: (compound dose 1 µM) 0.995 ± 0.29; (compound dose 5 µM) 1.06 ± 0.034.
Consider `COc1cc2c(c(OC)c1OC)-c1c(cc3c(c1OC)OCO3)C[C@H](C)[C@H](C)C2` [Gomisin N], for which the cell count stood at 1.13 ± 0.25 (compound dose 1 µM) and 1.02 ± 0.078 (compound dose 5 µM).
Consider `CCOC(=O)C1=CCCC[C@H]1S(=O)(=O)Nc1ccc(F)cc1Cl` [Resatorvid], for which the cell count (compound dose 1 µM) came to 1.02 ± 0.13 and the cell count (compound dose 5 µM) came out at 0.644 ± 0.11.
Taken in the same sequence, the figures for `Nc1cccc2c1CN(C1CCC(=O)NC1=O)C2=O` (stereo not given) [Lenalidomide] were 0.912 ± 0.17 and 0.892 ± 0.056.
Take `COc1nc(-c2ccc3c(c2)OCO3)n(-c2ccc(NC(=O)CSc3ccccc3)cc2)n1` [SecinH3]: the cell count runs as follows: (compound dose 1 µM) 0.832 ± 0.13; (compound dose 5 µM) 0.73 ± 0.18.
With `O=C(Nc1ccc(-c2ccnc(Nc3ccc(N4CCOCC4)cc3)n2)cc1)C1CCCN1` (stereo not given), the cell count is, setting by setting: (compound dose 1 µM) 1.08 ± 0.035; (compound dose 5 µM) 1.25 ± 0.1.
Taken in the same sequence, the figures for `O=C(Nc1ccc(Cl)c(Cl)c1)Nc1ccc2nnsc2c1` were 1.16 ± 0.091 and 1.43 ± 0.22.
Regarding `CN1C(=O)[C@@H](NC(=O)c2cc(Cc3ccccc3)on2)COc2ccccc21`, the cell count is 1.29 ± 0.083 (compound dose 1 µM) and 0.859 ± 0.076 (compound dose 5 µM).
For `COc1c(/C=C/C(=O)c2ccc(O)cc2)ccc(O)c1O` [Licochalcone B], in that order: 1.006 ± 0.0085 and 1.09 ± 0.14.
For `O=C(O)CC1CC(c2ccccc2)=NO1` (stereo not given), the cell count runs as follows: (compound dose 1 µM) 1.03 ± 0.079; (compound dose 5 µM) 1.13 ± 0.13.
Turning to `COC[C@H](NC(=O)c1cnc(C)s1)C(=O)N[C@@H](COC)C(=O)N[C@@H](Cc1ccccc1)C(=O)[C@@]1(C)CO1` [Oprozomib], the cell count is, setting by setting: (compound dose 1 µM) 0.807 ± 0.08; (compound dose 5 µM) 0.181 ± 0.09.
Taken in the same sequence, the figures for `CC(CCC(=O)NCCS(=O)(=O)O)C1CCC2C3C(O)CC4CC(O)CCC4(C)C3CCC12C` (stereo not given) [Taurochenodeoxycholic acid (sodium salt)] were 1.21 ± 0.079 and 0.903 ± 0.03.
For `COc1ccc(CC[C@@H](OC(=O)[C@@H]2CCCCN2C(=O)[C@H](c2cc(OC)c(OC)c(OC)c2)C2CCCCC2)c2cccc(OCCN3CCOCC3)c2)cc1OC`, in that order: 1.19 ± 0.044 and 0.642 ± 0.4.
Take `COc1ccc(-c2cc(C(F)F)nn2-c2ccc(S(N)(=O)=O)cc2)cc1F`: the cell count was determined as 0.887 ± 0.069 (compound dose 1 µM) and 0.638 ± 0.16 (compound dose 5 µM).
Taken in the same sequence, the figures for `S=C(N/N=C1/CCCc2cccnc21)N1CCN(c2ccccn2)CC1` were 1.2 ± 0.1 and 0.64 ± 0.3.
`NC(=O)[C@H](CCCN=C(N)CCl)NC(=O)c1ccccc1` [Cl-amidine (hydrochloride)]: the cell count by setting is: (compound dose 1 µM) 1.21 ± 0.14; (compound dose 5 µM) 1.23 ± 0.16.
For `COc1cc(/C=C/c2ccc(O)c(O)c2)cc(OC)c1` [3'-Hydroxypterostilbene], in that order: 1.1 ± 0.1 and 0.829 ± 0.059.
For `C[C@H](Oc1cc(-c2cnn(C3CCNCC3)c2)cnc1N)c1c(Cl)ccc(F)c1Cl` [(S)-Crizotinib], the cell count came to 1.09 ± 0.11 (compound dose 1 µM) and 0.973 ± 0.25 (compound dose 5 µM).
For `O=C1CC[C@H](N2Cc3c(OCc4ccc(CN5CCOCC5)cc4)cccc3C2=O)C(=O)N1` [Iberdomide], in that order: 1.21 ± 0.025 and 0.702 ± 0.19.
For `CC1(C)CC[C@]2(C(=O)O)[C@H](O)C[C@]3(C)C(=CC[C@@H]4[C@@]5(C)CC[C@H](O)C(C)(C)[C@@H]5CC[C@]43C)[C@H]2C1` [Echinocystic acid], in that order: 1.05 ± 0.23 and 0.984 ± 0.015.
Taken in the same sequence, the figures for `CN(CCOc1ccc(CC2SC(=O)NC2=O)cc1)c1ccccn1` (stereo not given) were 0.983 ± 0.11 and 0.778 ± 0.23.
Take `Oc1c2ccccc2c2c3c(cccc13)N=N2`: the cell count by setting is: (compound dose 1 µM) 0.912 ± 0.14; (compound dose 5 µM) 0.484 ± 0.15.
For the molecule `CCCCC(CC)CNC(=N)NC(=N)NCCCCCCNC(=N)NC(=N)NCC(CC)CCCC` (stereo not given) [Alexidine (dihydrochloride)], the cell count reads like this: (compound dose 1 µM) 1.03 ± 0.13; (compound dose 5 µM) 0.722 ± 0.13.
As for `Cc1[nH]c(/C=C2\C(=O)Nc3ccc(S(=O)(=O)N(C)c4cccc(Cl)c4)cc32)c(C)c1C(=O)N1CCN(C)CC1`, the cell count was found to be 1.12 ± 0.092 (compound dose 1 µM) and 1.43 ± 0.15 (compound dose 5 µM).
Turning to `CCCCCCc1ccc(O)cc1O`, the cell count by setting is: (compound dose 1 µM) 1.22 ± 0.013; (compound dose 5 µM) 1.18 ± 0.23.
For `CCCCc1nc(C)c(CC(=S)N(C)C)c(=O)n1Cc1ccc(-c2ccccc2-c2nnn[nH]2)cc1` [Fimasartan], in that order: 0.781 ± 0.11 and 0.638 ± 0.23.
With `CC(C)=CCC[C@](C)(O)C1CC=C(C)CC1` (stereo not given in full), the cell count reads like this: (compound dose 1 µM) 0.974 ± 0.28; (compound dose 5 µM) 1.14 ± 0.061.
For `COc1ccc(C(=O)C2CCN(CC(=O)N(Cc3nc4c(c(=O)[nH]3)COCC4)CC3CC3)CC2)cc1`, in that order: 0.947 ± 0.16 and 0.964 ± 0.16.
Taken in the same sequence, the figures for `Nc1ncnc2c1c(-c1cnc3[nH]ccc3c1)nn2C1CCCC1` were 0.435 ± 0.0099 and 0.186 ± 0.046.
